Data as given in patent US9428552B2, “Stem cell mobilization and tissue repair and regeneration” (Wellstat Therapeutics Corporation, priority 2012, dated 2016).
“Also recorded” adds a separate entry of the source. At least one peptide structure holds a part that was inferred or is arguable (an end, a ring closure or a residue). Peptide text beside a SMILES is read from it.

Columns and labels:
[1] = test system: hematopoietic stem cells (HSC) and their hematopoietic progenitors (HPC); assay: Mobilization of stem cells into peripheral blood after single subcutaneous injection (colony-forming assay); format: in vivo, mice
Protocol: Stimulatory doses of Compound A activate quiescent stem cells, induce them to proliferate and egress from bone marrow into peripheral blood. […]
After 1 hour, mice were anesthetized and blood was collected through the orbital sinus with heparinized capillary tubes. To enumerate HSC and HPC in peripheral blood, cells were washed, counted and plated in semi-solid Methylcellulose (Stem cell technology) at 100,000 per dish (5 dishes/group) and placed in CO2 incubator at 37° C. Colony-forming unit-granulocyte erythroid macrophage megakaryocyte (CFU-GEMM) and Colony-forming unit-granulocyte macrophage (CFU-GM) were detected under inverted microscope after 7-10 days in culture.

CFU-GEMM [2] = assay: Mobilization of CFU-GEMM and CFU-GM in db/db mice with high glucose level; format: in vivo; settings: 10 mg/kg s.c. over five consecutive days
Protocol: To test mobilizing effect of Compound A in db/db mice with high level of glucose the following experiment was conducted. BKS.Cg-Dock7m+/+Leprdb/J male mice (10 weeks old Jackson Laboratories, stock #000642) were subcutaneously injected with 0.9% saline (vehicle control), 5 mg/kg Compound C, or 10 mg/kg Compound A (ThinkPeptides) for 5 consecutive days. At 7 days post initial injection, peripheral blood from 3 mice per group was harvested from the orbital plexus using capillary tubes (VWR) and collected into EDTA-containing tubes (BD).

Caspase-3 = Caspase-3 fluorimetric assay in EML cell lysates after HS and SCF deprivation; format: cell-based, murine
Protocol: To assess possible effect of Compound A and other peptides on Caspase-3 enzymatic activity during apoptosis induced by serum starvation fluorimetric assay Caspase-3 assay was performed according to the manufacturer's instructions (ApoAlert Clontech Mountain view CA).
Cell suspensions after the incubation were divided into two equal tubes (+/−Caspase inhibitor). Cells were centrifuged at 400×g for 5 min and re-suspend in chilled Cell Lysis Buffer with the following incubation on ice for 10 min., cell lysates were centrifugated in a microcentrifuge at max speed for 10 min at 4° C. and transferred into new tubes.
50 μl of 2× Reaction buffer/DTT mix and 1 μl of Caspase inhibitor added to 50 μl of cell lysate (+Inhibitor groups). 1 uL DMSO per 50 μL of 2× Reaction buffer was added to samples without inhibitor.
5 μL of the 1 mM Caspase-3 Substrate (DEVD-AFC; 50 μM final concentration) were added to each tube and incubated at t-37° C. for 1 hr in a water bath. All samples in duplicates were transferred to a 96 well plate. The plates were analyzed on a fluorescence plate reader (Spectramax Gemini.) at a 400 nm excitation and a 505 nm emission, and Caspase-3 activity was expressed relative to the medium control. Free AFC accumulation that resulted from cleavage of the asparatic-AFC bond monitored by fluorimeter and results in duplicates were recalculated according to the free AFC calibration curve.

CFU-GEMM [3] = assay: Stimulatory Ara C suicide assay, bone marrow cells of naïve BDF1 mice; format: cell-based; settings: for percentage of CFU-GEMM in S-phase of cell cycle: 4 hr incubation with normal murine bone marrow cells
CFU-GEMM [4] = assay: Inhibitory AraC suicide assay, bone marrow cells of testosterone treated BDF1 mice; format: cell-based
hindlimb ischemia = assay: Unilateral hindlimb ischemia by femoral artery ligation; format: in vivo, mice
Excerpt: Ligation of the femoral artery in mice is an established model of hindlimb ischemia for testing treatments that might improve revascularization and functional recovery.
A total of 50 C57/B16 8-10 week old female mice were divided into 5 treatment groups (n=10/group).
• 1. Vehicle Control • 2. DFO (intramuscular) DFO (desferrioxamine) has been reported to improve revascularization by augmenting HIF-1α activation in sites of damage, to elicit secretion of local angiogenic factors and chemotactic signals that attract circulating repair-promoting stem and progenitor cells) • 3. DFO (intramuscular)+Compound C (subcutaneous) • 4. Compound A (subcutaneous) • 5. DFO (intramuscular)+Compound A (subcutaneous)
Mice were subjected to unilateral total ligation and transection of the femoral artery under anesthesia (2% Isoflurane mixed with 100% oxygen). A unilateral incision was made over the left medial thigh of each mouse. The subcutaneous fat pad was cleaved for better exposure. The vein and nerve were separated from the femoral artery. The superficial femoral was ligated with 6-0 silk suture proximal to the caudally branching deep femoral artery and proximal to the branching of tibia arteries. The artery between the ligation points was excised. The connected branch from femoral artery was coagulated.
DFO or PBS control was immediately injected into adduct, quadriceps, gluteus and calf muscles after femoral artery excised. Each muscle received ¼ volume based on a total dose of 100 mg/kg DFO. After surgery, mice received intramuscular DFO every day for 14 days under brief anesthesia with 2% isoflurane on week days, and received intraperitoneal DFO on weekends.
Compound A in PBS, Compound C in PBS or Vehicle PBS were injected subcutaneously at 10 AM-11 AM on days 1 to 14 after surgery (day 0). Each mouse received a dose of 250 μg/kg subcutaneously.
On day 0, 4, 9, and 14, the condition of left hind limbs were evaluated with Muscle Function Score and Ischemia Score. All animal were fasted overnight before euthanization at which time plasma, adduct, calf tissues were collected on both left and right hind limbs. Each muscle were snap frozen in liquid nitrogen. Calf muscle was embedded with OCT and frozen in liquid nitrogen for histology analysis.
Recovery of circulation and function in the hindlimb ischemia model involves angiogenesis and revascularization, a process triggered by oxygen deficits. Revascularization was evaluated on day 14 after artery ligation by counting capillaries in cross sectional histology slides prepared from gastrocnemius muscles from both legs. In all groups including vehicle controls, capillary counts were higher in the left (ischemic) muscle than in the right, indicating compensatory revascularization. […]

[5] = DBA/2J mice, 250 μg/kg s.c. single injection, peripheral blood 1 hr after injection
[6] = 10 μM present during starvation, starvation control 100%

SMILES: CC(C)C[C@H](NC(=O)[C@H](CC(=O)O)NC(=O)[C@H](Cc1ccccc1)NC(=O)[C@H](Cc1c[nH]cn1)NC(=O)[C@@H]1CCCN1C(=O)[C@@H](N)Cc1ccccc1)C(=O)N[C@@H](CO)C(=O)N[C@@H](Cc1c[nH]cn1)C(=O)NCC(=O)N[C@@H](CO)C(=O)N[C@@H](C)C(=O)N[C@@H](CCC(N)=O)C(=O)N[C@H](C(=O)N[C@@H](CO)C(=O)N[C@@H](CC(=O)O)C(=O)N[C@@H](CCCCN)C(=O)N1CCC[C@H]1C(=O)O)C(C)C [Compound A, Phe-Pro-His-Phe-Asp-Leu-Ser-His-Gly-Ser-Ala-Gln-Val-Ser-Asp-Lys-Pro] (H-FPHFDLSHGSAQVSDKP-OH; N-terminus and C-terminus assumed)
- increase of number of HSC per ml of blood compared to naïve mice ([1]; 250 μg/kg s.c., 1 hr after injection): 2.2 times
- CFU-GEMM/100000 cells Mean [1, 5]: 9 CFU-GEMM/100000 cells
- CFU-GM/100000 cells Mean [1, 5]: 11.8 CFU-GM/100000 cells
- increase in CFU-GEMM numbers ([1]; DBA/2J mice, single 125 μg/kg dose, within one hour of administration): four-fold
- White blood cell count (WBC) compared to naïve or vehicle injected mice ([1]; s.c. injection): did not change WBC
- doses with mobilizing activity ([1]; single s.c. injection, tested from 50 μg/kg up to 5 mg/kg): 0.05 to 0.75 mg/kg
- CFU-GEMM mobilized into peripheral blood versus Saline control (CFU-GEMM [2]): twice
- Caspase-3 proteolytic activity, Exp 1 (Caspase-3; [6]): 73%
- Caspase-3 proteolytic activity, Exp 2 (Caspase-3; [6]): 89%
- Caspase-3 proteolytic activity, Exp 3 (Caspase-3; [6]): 64%
- Caspase-3 proteolytic activity, Sum of 3 experiments (Caspase-3; [6]): 75.3 +/− 12.6%
- Caspase-3 activation induced by HS and SCF deprivation (Caspase-3; EML cells, peptide present during starvation): prevented Caspase-3 activation; also recorded: decreased Caspase-3 activity down to the level found in control EML cells
- effect decreasing Caspase-3 proteolytic activity on co-incubation with CAY10444 (Caspase-3; EML cells, serum starvation): abrogated
- percentage of CFU-GEMM in S-phase of cell cycle (CFU-GEMM [3]; 10 μg/ml): increases
- percentage of CFU-GEMM in S-phase of cell cycle (CFU-GEMM [3]; 100 μg/ml): not
- doses activating slow proliferating colony-forming cells (CFU-GEMM [3]; murine bone marrow): 5 to 50 µg/mL
- concentration that brought down proliferation of HSC/HPC induced by in vivo testosterone injection (CFU-GEMM [4]; 4 hr incubation of bone marrow cells): 100 to 1000 ng/mL
- inhibitory doses lower than stimulatory doses (CFU-GEMM [4]; rapidly proliferating versus slowly proliferating stem cells): about 2 logs
- Muscle Function Score (hindlimb ischemia; C57/BL6 mice, day 9, peptide 250 μg/kg s.c., DFO 100 mg/kg i.m.): near-normal function
- function, ischemic damage, and capillary counts (conclusion) (hindlimb ischemia; C57/BL6 mice, subcutaneous administration): improved
- Ischemia Score compared with Vehicle-treated mice (hindlimb ischemia; C57/BL6 mice, 250 μg/kg s.c.): less impairment
- ratio of capillary numbers in the left versus right legs compared with other treatment groups (hindlimb ischemia; gastrocnemius muscle, day 14 after artery ligation): higher
